This assay addresses T1, Flag-HIC1 (Hypermethylated In Cancer 1), wild type (UniProt Q14526).
T1 sequence: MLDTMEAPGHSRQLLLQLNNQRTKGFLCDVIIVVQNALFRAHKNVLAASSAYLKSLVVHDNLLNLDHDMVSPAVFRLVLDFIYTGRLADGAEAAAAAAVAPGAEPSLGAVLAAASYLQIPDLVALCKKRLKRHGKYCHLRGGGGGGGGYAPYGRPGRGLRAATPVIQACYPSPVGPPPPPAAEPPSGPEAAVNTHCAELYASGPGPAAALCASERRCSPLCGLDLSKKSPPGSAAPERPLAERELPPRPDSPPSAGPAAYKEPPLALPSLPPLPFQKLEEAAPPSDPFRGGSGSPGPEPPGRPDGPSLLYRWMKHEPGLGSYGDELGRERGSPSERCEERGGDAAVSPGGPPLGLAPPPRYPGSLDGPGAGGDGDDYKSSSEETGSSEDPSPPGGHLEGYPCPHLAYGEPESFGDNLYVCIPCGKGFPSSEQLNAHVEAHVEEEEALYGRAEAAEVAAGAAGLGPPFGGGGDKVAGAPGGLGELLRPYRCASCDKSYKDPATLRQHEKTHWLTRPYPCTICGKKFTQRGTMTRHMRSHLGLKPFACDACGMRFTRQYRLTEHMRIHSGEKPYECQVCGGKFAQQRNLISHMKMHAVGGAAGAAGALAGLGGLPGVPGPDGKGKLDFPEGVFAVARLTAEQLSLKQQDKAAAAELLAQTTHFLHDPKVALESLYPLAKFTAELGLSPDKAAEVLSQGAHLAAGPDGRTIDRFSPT
Description: co-IP; HEK293T co-transfected; nuclear extracts (1 mg) incubated overnight at 4 °C with M2 anti-Flag antibody; washes with high-salt (500 mM NaCl) and low salt (125 mM NaCl) buffers; Western blot.

The chains behind the UniProt entries cited, without tags or fusion partners.
UniProt P17096: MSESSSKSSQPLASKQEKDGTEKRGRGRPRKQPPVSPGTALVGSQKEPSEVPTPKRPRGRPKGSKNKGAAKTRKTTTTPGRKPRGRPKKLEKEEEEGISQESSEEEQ
UniProt Q9C0K0: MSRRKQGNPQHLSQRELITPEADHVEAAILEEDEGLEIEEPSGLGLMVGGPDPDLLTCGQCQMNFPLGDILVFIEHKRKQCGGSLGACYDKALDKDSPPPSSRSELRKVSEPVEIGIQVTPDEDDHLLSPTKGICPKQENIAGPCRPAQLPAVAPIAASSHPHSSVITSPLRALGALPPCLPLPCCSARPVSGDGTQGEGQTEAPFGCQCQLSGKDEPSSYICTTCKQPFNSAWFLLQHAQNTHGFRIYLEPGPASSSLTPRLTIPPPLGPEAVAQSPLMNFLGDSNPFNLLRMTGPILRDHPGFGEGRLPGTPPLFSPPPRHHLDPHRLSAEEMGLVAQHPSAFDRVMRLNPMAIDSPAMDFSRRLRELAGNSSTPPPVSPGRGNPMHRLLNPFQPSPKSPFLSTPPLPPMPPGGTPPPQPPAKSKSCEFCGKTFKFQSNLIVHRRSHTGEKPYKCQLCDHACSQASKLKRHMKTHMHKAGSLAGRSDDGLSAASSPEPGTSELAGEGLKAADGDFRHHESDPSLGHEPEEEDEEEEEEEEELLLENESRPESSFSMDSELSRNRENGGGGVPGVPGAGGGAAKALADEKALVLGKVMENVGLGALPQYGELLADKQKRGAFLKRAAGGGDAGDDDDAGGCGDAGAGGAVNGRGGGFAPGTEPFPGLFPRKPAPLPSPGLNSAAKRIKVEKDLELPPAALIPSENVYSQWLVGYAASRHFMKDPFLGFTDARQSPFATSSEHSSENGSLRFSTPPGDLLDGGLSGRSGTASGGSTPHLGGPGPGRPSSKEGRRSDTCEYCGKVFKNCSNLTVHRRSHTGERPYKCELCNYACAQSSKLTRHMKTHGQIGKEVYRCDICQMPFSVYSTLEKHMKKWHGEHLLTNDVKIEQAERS

No constants are given. Whether binding was seen depends on the method and setting. In cells and extracts the contact can be indirect. Some binding calls cover weakened binding; strength is not graded here. Sequences can lack the tags named with a protein.

Take “GFP-HMGA1 (High Mobility Group AT-Hook 1) (from UniProt P17096 1-107)”: the binding entry is “binds”.

With “tap-CTIP2 (Bcl11b/CTIP2 from pNTAP-CTIP2) (from UniProt Q9C0K0 1-894)”, the binding result is recorded as “binds”.

These data come from PMC5057145.
